B1: β97V-Y: B8.2.4 TCR point mutant, Vβ-CDR3 97V to Y (protein)
TCR alpha: AQKITQTQPGMFVQEKEAVTLDCTYDTSDPSYGLFWYKQPSSGEMIFLIYQGSYDQQNATEGRYSLNFQKARKSANLVISASQLGDSAMYFCAMRERTGTASKLTFGTGTRLQVTLDIQNPEPAVYQLKDPRSQDSTLCLFTDFDSQINVPKTMESGTFITDKTVLDMKAMDSKSNGAIAWSNQTSFTCQDIFKETNATYPSSDVPCDATLTEKSFETDMNLNFQNLSVMGLRILLLKVAGFNLLMTLRLWSS
TCR beta: DVKVTQSSRYLVKRTGEKVFLECVQDMDHENMFWYRQDPGLGLRLIYFSYDVKMKEKGDIPEGYSVSREKKERFSLILESASTNQTSMYLCASSQTYPPQHFGDGTRLSILEDLRNVTPPKVSLFEPSKAEIANKQKATLVCLARGFFPDHVELSWWVNGKEVHSGVSTDPQAYKESNYSYCLSSRLRVSATFWHNPRNHFRCQVQFHGLSEEDKWPEGSPKPVTQNISAEAWGRADCGITSASYQQGVLSATILYEILLGKATLYAVLVSTLVVMAMVKRKNS
B2: β98P-C: B8.2.4 TCR point mutant, Vβ-CDR3 98P to C; CDR3β ASSQTVCPQH (protein)
TCR alpha: B1 TCR alpha
TCR beta: B1 TCR beta with Y97V, P98C
B3: β98P-I: B8.2.4 TCR point mutant, Vβ-CDR3 98P to I (protein)
TCR alpha: B1 TCR alpha
TCR beta: B1 TCR beta with Y97V, P98I
B4: β98P-L: B8.2.4 TCR point mutant, Vβ-CDR3 98P to L; CDR3β ASSQTVLPQH (protein)
TCR alpha: B1 TCR alpha
TCR beta: B1 TCR beta with Y97V, P98L
B5: β98P-M: B8.2.4 TCR point mutant, Vβ-CDR3 98P to M; CDR3β ASSQTVMPQH (protein)
TCR alpha: B1 TCR alpha
TCR beta: B1 TCR beta with Y97V, P98M
B6: β98P-G: B8.2.4 TCR point mutant, Vβ-CDR3 98P to G; CDR3β ASSQTVGPQH (protein)
TCR alpha: B1 TCR alpha
TCR beta: B1 TCR beta with Y97V, P98G
B7: β98P-A: B8.2.4 TCR point mutant, Vβ-CDR3 98P to A (protein)
TCR alpha: B1 TCR alpha
TCR beta: B1 TCR beta with Y97V, P98A
B8: β98P-N: B8.2.4 TCR point mutant, Vβ-CDR3 98P to N (protein)
TCR alpha: B1 TCR alpha
TCR beta: B1 TCR beta with Y97V, P98N
B9: β98P-E: B8.2.4 TCR point mutant, Vβ-CDR3 98P to E; CDR3β ASSQTVEPQH (protein)
TCR alpha: B1 TCR alpha
TCR beta: B1 TCR beta with Y97V, P98E
B10: β98P-R: B8.2.4 TCR point mutant, Vβ-CDR3 98P to R; CDR3β ASSQTVRPQH (protein)
TCR alpha: B1 TCR alpha
TCR beta: B1 TCR beta with Y97V, P98R
B11: β98P-Q: B8.2.4 TCR point mutant, Vβ-CDR3 98P to Q (protein)
TCR alpha: B1 TCR alpha
TCR beta: B1 TCR beta with Y97V, P98Q
B12: β98P-S: B8.2.4 TCR point mutant, Vβ-CDR3 98P to S; CDR3β ASSQTVSPQH (protein)
TCR alpha: B1 TCR alpha
TCR beta: B1 TCR beta with Y97V, P98S
B13: β98P-F: B8.2.4 TCR point mutant, Vβ-CDR3 98P to F; CDR3β ASSQTVFPQH (protein)
TCR alpha: B1 TCR alpha
TCR beta: B1 TCR beta with Y97V, P98F
B14: β98P-V: B8.2.4 TCR point mutant, Vβ-CDR3 98P to V; CDR3β ASSQTVVPQH (protein)
TCR alpha: B1 TCR alpha
TCR beta: B1 TCR beta with Y97V, P98V
B15: β98P-H: B8.2.4 TCR point mutant, Vβ-CDR3 98P to H; CDR3β ASSQTVHPQH (protein)
TCR alpha: B1 TCR alpha
TCR beta: B1 TCR beta with Y97V, P98H
B16: β98P-Y: B8.2.4 TCR point mutant, Vβ-CDR3 98P to Y (protein)
TCR alpha: B1 TCR alpha
TCR beta: B1 TCR beta with Y97V, P98Y
B17: β98P-W: B8.2.4 TCR point mutant, Vβ-CDR3 98P to W; CDR3β ASSQTVWPQH (protein)
TCR alpha: B1 TCR alpha
TCR beta: B1 TCR beta with Y97V, P98W
B18: β98P-D: B8.2.4 TCR point mutant, Vβ-CDR3 98P to D; CDR3β ASSQTVDPQH (protein)
TCR alpha: B1 TCR alpha
TCR beta: B1 TCR beta with Y97V, P98D
B19: β98P-T: B8.2.4 TCR point mutant, Vβ-CDR3 98P to T (protein)
TCR alpha: B1 TCR alpha
TCR beta: B1 TCR beta with Y97V, P98T
B20: β98P-K: B8.2.4 TCR point mutant, Vβ-CDR3 98P to K (protein)
TCR alpha: B1 TCR alpha
TCR beta: B1 TCR beta with Y97V, P98K

Changes are numbered by the printed parent chain.

The data set has as its system murine TCRβ constant region. Description: mTCRβ expression detection on Jurkat-NFAT-Luc cells. In kind it is cell-based. The note with it: TCR mutant transduced Jurkat-NFAT-Luc cells.
B1 displayed a mTCRβ % of 36.9%.

With B2, the mTCRβ % is listed as 80.7%.

Consider B3, for which the mTCRβ % was 66.4%.

Turning to B4, the mTCRβ % stood at 72.5%.

As to B5, the mTCRβ % was determined as 61.2%.

In turn, B6 showed a mTCRβ % of 81.5%.

Consider B7, for which the mTCRβ % stood at 67.6%.

Regarding B8, the mTCRβ % is recorded as 75.8%.

On to B9, for which the mTCRβ % is given as 60.8%.

B10 returned a mTCRβ % of 78%.

B11 gave a mTCRβ % of 67.8%.

B12 gave a mTCRβ % of 76.3%.

As for B13, the mTCRβ % is recorded as 82.5%.

With B14, the mTCRβ % amounted to 77.2%.

In the case of B15, the mTCRβ % stood at 72.9%.

In turn, B16 showed a mTCRβ % of 54%.

B17: the mTCRβ % amounted to 81%.

Molecule B18 had a mTCRβ % of 82%.

Molecule B19 yielded a mTCRβ % of 54%.

Molecule B20 registered a mTCRβ % of 63.8%.

The values are drawn from US20240123070A1, “EPITOPE PEPTIDE OF RAS G13D MUTANT AND T CELL RECEPTOR RECOGNIZING RAS G13D MUTANT” (SHANGHAI GENBASE BIOTECHNOLOGY CO., LTD., priority 2021, published 2024).
